The record followed here is PMC11441496.

The test deals with K. pneumoniae TOP52 FimH S62A (Klebsiella pneumoniae). Put plainly: in vitro donor strand exchange, product purified by cation exchange; FimCGdb and FimChisH mixed at a 3:1 molar ratio in 20 mM MES (pH 5.6) at 30 °C for 16 h; FimCGdbH purified on a cation (S) exchange column; FimH entered the reaction bound to FimChis; both purified.

No constants are given. Whether binding was seen depends on the method and setting. A result given as binding can be weak or reduced; the word gives no strength.

B1: E. coli UTI89 FimG S138C (protein, UniProt P08190 24-167)
chain: ADVTITVNGKVVAKPCTVSTTNATVDLGDLYSFSLMSAGAASAWHDVALELTNCPVGTSRVTASFSGAADSTGYYKNQGTAQNIQLELQDDSGNTLNTGATKTVQVDDSSQSAHFPLQVRALTVNGGATQGTIQAVICITYTYS
For the molecule B1, the binding entry is “binds”.
